Experimental data from publication doi:10.1101/2022.01.06.474281.
No constants are given. Whether binding was seen depends on the method and setting. For some assays here: Binding seen in cells or lysates may run through a third protein. Some entries that bind do so weakly or less than the wild type. Where a sequence is shown, tags or fusion partners need not be part of it. One block for each binder: values may come before it.

Assays:
[1] = target: T1, RETINOBLASTOMA RELATED (RBR), Arabidopsis, yeast two-hybrid fusion in pDEST32 (Arabidopsis thaliana) (UniProt Q9LKZ3); experiment: two-hybrid
T1 sequence: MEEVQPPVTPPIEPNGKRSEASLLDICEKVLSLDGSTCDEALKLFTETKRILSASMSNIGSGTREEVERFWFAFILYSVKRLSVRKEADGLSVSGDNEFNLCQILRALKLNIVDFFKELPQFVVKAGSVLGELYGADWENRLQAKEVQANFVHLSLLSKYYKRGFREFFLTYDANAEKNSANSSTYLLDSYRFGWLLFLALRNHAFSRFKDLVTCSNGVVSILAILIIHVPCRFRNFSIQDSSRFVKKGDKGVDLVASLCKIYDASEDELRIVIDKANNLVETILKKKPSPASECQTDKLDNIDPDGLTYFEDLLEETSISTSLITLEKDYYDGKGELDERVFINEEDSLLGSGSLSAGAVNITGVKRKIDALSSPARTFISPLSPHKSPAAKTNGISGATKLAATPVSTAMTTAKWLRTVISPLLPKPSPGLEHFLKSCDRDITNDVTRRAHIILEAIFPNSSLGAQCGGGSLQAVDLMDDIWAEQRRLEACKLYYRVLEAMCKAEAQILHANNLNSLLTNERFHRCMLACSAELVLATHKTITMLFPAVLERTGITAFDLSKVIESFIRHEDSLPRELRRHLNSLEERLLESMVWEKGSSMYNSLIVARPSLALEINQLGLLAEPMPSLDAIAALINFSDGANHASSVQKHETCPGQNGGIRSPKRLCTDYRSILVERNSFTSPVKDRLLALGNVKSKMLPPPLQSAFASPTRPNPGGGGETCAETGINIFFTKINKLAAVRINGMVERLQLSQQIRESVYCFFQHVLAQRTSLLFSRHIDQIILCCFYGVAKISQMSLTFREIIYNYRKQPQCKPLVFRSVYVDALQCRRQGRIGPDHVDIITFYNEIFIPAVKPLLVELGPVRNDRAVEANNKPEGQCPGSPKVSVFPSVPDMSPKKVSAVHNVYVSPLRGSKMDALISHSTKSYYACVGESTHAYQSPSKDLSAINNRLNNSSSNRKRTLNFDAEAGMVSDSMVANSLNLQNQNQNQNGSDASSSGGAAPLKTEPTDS

[2] = target: T2, RETINOBLASTOMA RELATED (RBR), Arabidopsis, BiFC fusion (Arabidopsis thaliana) (UniProt Q9LKZ3); experiment: split reporter
T2 sequence: T1 sequence

- binding [1]: binds weakly
B1: DRD1, Arabidopsis, yeast two-hybrid fusion (protein, UniProt Q9SIW2 1-888)
chain: MGFVYIVMTGYYKNVHKRKQNQVDDGPEAKRVKSSAKVIDYSNPFAVSNMLEALDSGKFGSVSKELEEIADMRMDLVKRSIWLYPSLAYTVFEAEKTMDNQQVVEGVINLDDDDDDDTDVEKKALCVVPSSSEIVLLDSDDEDNERQRPMYQFQSTLVQHQKNQGDVTPLIPQCSFEEVDLGRGKEMPSAIKAIVEGQTSRGKVLPIENGVVNEKGVYVGVEEDDSDNESEAADEDLGNIWNEMALSIECSKDVARETSHKEKADVVEDCEHSFILKDDMGYVCRVCGVIEKSILEIIDVQFTKAKRNTRTYASETRTKRFGESDNELKFSEEGLMIGGLAAHPTHAAEMKPHQIEGFQFLCSNLVADDPGGCIMAHAPGSGKTFMIISFMQSFLAKYPQAKPLVVLPKGILPTWKKEFVRWQVEDIPLLDFYSAKAENRAQQLSILKQWMEKKSILFLGYQQFSTIVCDDTTDSLSCQEILLKVPSILILDEGHTPRNEDTNLLQSLAQVQTPRKVVLSGTLYQNHVKEVFNILNLVRPKFLKLDTSKSAVKRILAYTPCDVRGRLTGSNSDMASMFNETVEHTLQKSEDFTVKIKVIQDLREMTKKVLHYYKGDFLDELPGLADFTVVLNLSPKQLNEVKKLRREKRKFKVSAVGSAIYLHPKLKVFSDKSDDVSDTTMDEMVEKLDLNEGVKAKFFLNLINLCDSAGEKLLVFSQYLIPLKFLERLAALAKGWKLGKEVFVLTGNTSSEQREWSMETFNSSPDAKIFFGSIKACGEGISLVGASRILILDVPLNPSVTRQAIGRAFRPGQKKMVHAYRLIAGSSPEEEDHNTCFKKEVISKMWFEWNEYCGYQNFEVETIDVDEAGDTFLESPALREDIRVLYKR

- binding [1]: binds
B3: SUVR2, Arabidopsis, yeast two-hybrid fusion (protein, UniProt Q9FNC7 1-717)
chain: MAPNLHIKKAFMAMRAMGIEDARVKPVLKNLLALYEKNWELIAEDNYRVLADAIFDSHEDQAIQESEEKKADEVKEDEGCAAEVDRGKKKLHESIEDDEDVMAESDRPLKRLRRRGEGGSALASPSLGSPTLEGPSINDEENAPILLPYHPVPIENDHDAGELILTKVEPITNMPLSSIPDSVDRGDSSMLEIDKSNGHVEEKAGETVSTADGTTNDISPTTVARFSDHKLAATIEEPPALELASSASGEVKINLSFAPATGGSNPHLPSMEELRRAMEEKCLRSYKILDPNFSVLGFMNDICSCYLDLATNGRDSANQLPKNLPFVTTNIDALKKSAARMAYTSQASNDVVEICSNEHMRDAENGAVGDSMALVVVPECQLSADEWRLISSVGDISLGKETVEIPWVNEVNDKVPPVFHYIAQSLVYQDAAVKFSLGNIRDDQCCSSCCGDCLAPSMACRCATAFNGFAYTVDGLLQEDFLEQCISEARDPRKQMLLYCKECPLEKAKKEVILEPCKGHLKRKAIKECWSKCGCMKNCGNRVVQQGIHNKLQVFFTPNGRGWGLRTLEKLPKGAFVCELAGEILTIPELFQRISDRPTSPVILDAYWGSEDISGDDKALSLEGTHYGNISRFINHRCLDANLIEIPVHAETTDSHYYHLAFFTTREIDAMEELTWDYGVPFNQDVFPTSPFHCQCGSDFCRVRKQISKGKNVKKRA

- binding [2]: binds
B5: DOMAINS … 2 (DRM2), Arabidopsis, BiFC fusion (protein, UniProt Q9M548 1-626)
chain: MVIWNNDDDDFLEIDNFQSSPRSSPIHAMQCRVENLAGVAVTTSSLSSPTETTDLVQMGFSDEVFATLFDMGFPVEMISRAIKETGPNVETSVIIDTISKYSSDCEAGSSKSKAIDHFLAMGFDEEKVVKAIQEHGEDNMEAIANALLSCPEAKKLPAAVEEEDGIDWSSSDDDTNYTDMLNSDDEKDPNSNENGSKIRSLVKMGFSELEASLAVERCGENVDIAELTDFLCAAQMAREFSEFYTEHEEQKPRHNIKKRRFESKGEPRSSVDDEPIRLPNPMIGFGVPNEPGLITHRSLPELARGPPFFYYENVALTPKGVWETISRHLFEIPPEFVDSKYFCVAARKRGYIHNLPINNRFQIQPPPKYTIHDAFPLSKRWWPEWDKRTKLNCILTCTGSAQLTNRIRVALEPYNEEPEPPKHVQRYVIDQCKKWNLVWVGKNKAAPLEPDEMESILGFPKNHTRGGGMSRTERFKSLGNSFQVDTVAYHLSVLKPIFPHGINVLSLFTGIGGGEVALHRLQIKMKLVVSVEISKVNRNILKDFWEQTNQTGELIEFSDIQHLTNDTIEGLMEKYGGFDLVIGGSPCNNLAGGNRVSRVGLEGDQSSLFFEYCRILEVVRARMRGS

Second part, the binder before the results:

B2: DRD1, Arabidopsis, BiFC fusion (protein, UniProt Q9SIW2 1-888)
chain: B1 chain
- binding [2]: binds

B4: DOMAINS … 2 (DRM2), Arabidopsis, yeast two-hybrid fusion (protein, UniProt Q9M548 1-626)
chain: B5 chain
- binding [1]: binds weakly
